Values from PubChem BioAssay AID1224830 (NIAID, 2016).
This is one part, drawn at random, of about 18,000 deposited reagents. Over the whole deposit, about 2,900 (16%) were called active. 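Calls are made per well; low scores hint the gene aids the LPS response, high scores that it dampens it.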 Repeated entries: four replicate wells of each siRNA pool. No sequences are given here.

Screen: 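Genes whose knock-down alters the TNF-alpha reporter response to LPS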 (primary screen)
Cells: human THP-1 monocytic leukaemia cells, TNF dual-luciferase reporter clone, PMA-differentiated to macrophage-like cells
Reagents: siRNA pool against human genes, 50 nM
Duration: LPS for 4 h, given about 3 days after siRNA transfection
Treatment: bacterial LPS (TLR4 ligand), 10 ng/ml
Detection: 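TNF firefly reporter luminescence divided by renilla, normalised to the plate median, then turned into a robust z-score for each replicate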
Reading the numbers: TNF reporter robust z-score: higher = stronger TNF reporter response to LPS
Call rule: 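a well is active when its z-score exceeds 2.8 or falls below -1.5; control wells carry no call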

MIEF2 showed TNF reporter robust z-score 1.08; inactive.
Silencing of MIEF2 came out at: TNF reporter robust z-score 1.21; inactive.
Against MIEF2, the entry reads TNF reporter robust z-score -0.16; inactive.
MIEF2 scored TNF reporter robust z-score 0.44; inactive.
Knock-down of CTDSPL resulted in: TNF reporter robust z-score 0.6; inactive.
Knock-down of CTDSPL gave: TNF reporter robust z-score 2; inactive.
After knock-down of CTDSPL the results were TNF reporter robust z-score 2.95; active.
For CTDSPL the deposit lists TNF reporter robust z-score 4.78; active.

Sorted by “TNF reporter robust z-score” (highest first): some entries from above.
CTDSPL — TNF reporter robust z-score: 2; Outcome: inactive
CTDSPL — TNF reporter robust z-score: 0.6; Outcome: inactive

The list goes on.
CDC25A scored TNF reporter robust z-score 1.47; inactive.
For CDC25A, the entry reads TNF reporter robust z-score 1.27; inactive.
Knock-down of CDC25A came out at: TNF reporter robust z-score 3.37; active.
With knock-down of CDC25A, the record shows TNF reporter robust z-score 2.49; inactive.
With knock-down of TMEM177, the record shows TNF reporter robust z-score -1.42; inactive.
With knock-down of TMEM177, the record shows TNF reporter robust z-score -1.22; inactive.
TMEM177 showed TNF reporter robust z-score -1.38; inactive.
TMEM177 gave TNF reporter robust z-score -0.45; inactive.
C10orf71 scored TNF reporter robust z-score 0.26; inactive.
For C10orf71, the entry reads TNF reporter robust z-score 0.17; inactive.
Knock-down of C10orf71 resulted in: TNF reporter robust z-score 0.44; inactive.
C10orf71 showed TNF reporter robust z-score -0.44; inactive.
